Data on twelve molecules can be found in PubChem BioAssay AID256 (DTP/NCI, 2004).

This assay has as its system CD2F1 mice, L1210 leukemia ip, survival T/C. The experiment in a line: NCI In Vivo Anticancer Drug Screen. Data for tumor model L1210 Leukemia (intraperitoneal) in CD2F1 (CDF1) mice. The settings on record: higher T/C = longer survival. In short, it runs like this:
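Tumor-bearing mice (transplanted tumor) were split into treated and vehicle control groups, and the measured endpoint of each treated group was divided by that of its vehicle controls.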

Where [1] appears, read: T/C endpoint: median survival time, dose: 50.0 mg/kg/injection, schedule: Q01DX009 (ip), vehicle: Klucel (hydroxypropylcellulose) (HPC).
Where [2] appears, read: T/C endpoint: median survival time, dose: 100.0 mg/kg/injection, schedule: Q01DX009 (ip), vehicle: Klucel (hydroxypropylcellulose) (HPC).
Where [3] appears, read: T/C endpoint: median survival time, dose: 200.0 mg/kg/injection, schedule: Q01DX009 (ip), vehicle: Klucel (hydroxypropylcellulose) (HPC).
Setting [4] is: T/C endpoint: mean survival time, dose: 400.0 mg/kg/injection, schedule: Q04DX003 (ip), vehicle: saline.
The mark [5] stands for this setting: T/C endpoint: mean survival time, dose: 200.0 mg/kg/injection, schedule: Q04DX003 (ip), vehicle: saline.

Structures are written as SMILES. The list shows only some results of the screen, not a fair sample: it gathers tests that were run many times, whatever their T/C, doses with no T/C, and many T/C values between a quarter and a half above the control. Other doses and runs of a compound stand elsewhere. T/C: endpoint of the treated group in % of that of the vehicle group. Some doses have a count of surviving animals in place of a T/C: the source holds a T/C of zero for them, seemingly a mark for toxic or unscored doses. Some doses without a T/C left all or most animals alive at the check, yet need not have been tolerated: survival well below the control is almost never listed, so the zero probably covers shortened survival too. Counts of survivors are from the toxicity check (mostly the fifth day) where no day follows; animals may have died later. Schedule codes are those of the source, taken here to give the interval after Q, in days (D) or hours (H), and the number of doses after X. Some entries hold several experiments; their values stand side by side, smallest first. Some structures stand for samples that the source files as different forms (salt, stereo form or complex); doses refer to the form tested. Where survival is the endpoint, the PubChem record calls one and a half times the control and up active, and a quarter to a half above the control has no call in these data; cut-offs in other NCI protocols can differ. Some T/C values carry the count of animals alive at the toxicity check (mostly the fifth day); where none is given, no animal had died by that day. Additions like (4×) stand for listed records that agree.

As to `COc1ccc2[nH]c3ccc4cc[n+](CCN5CCC(C6CCN(CC[n+]7ccc8ccc9[nH]c%10ccc(OC)cc%10c9c8c7)CC6)CC5)cc4c3c2c1`, the T/C (T/C endpoint: median survival time, dose: 4.0 mg/kg/injection, schedule: Q01DX009 (ip), vehicle: water) was 135 % of control; the T/C (T/C endpoint: median survival time, dose: 6.25 mg/kg/injection, schedule: Q01DX009 (ip), vehicle: Klucel (hydroxypropylcellulose) (HPC)) is on record as 148, 160, 202, 246 % of control; the T/C (T/C endpoint: median survival time, dose: 8.1 mg/kg/injection, schedule: Q01DX009 (ip), vehicle: water) was 135 % of control; the T/C (T/C endpoint: median survival time, dose: 12.5 mg/kg/injection, schedule: Q01DX009 (ip), vehicle: Klucel (hydroxypropylcellulose) (HPC)) was 148, 151, 160 (2×), 191 % of control; the T/C (T/C endpoint: median survival time, dose: 25.0 mg/kg/injection, schedule: Q01DX009 (ip), vehicle: Klucel (hydroxypropylcellulose) (HPC)) is 145, 158, 160, 188, 197 % of control; the T/C (T/C endpoint: median survival time, dose: 32.0 mg/kg/injection, schedule: Q01DX009 (ip), vehicle: water) is 135 % of control. Besides, the T/C under setting [1] is recorded as 196, 271, 337 % of control; the T/C under setting [2] is 116 and 164 % of control. Further, the survivor count is, setting by setting: under setting [1], 0 of 6 and 2 of 6; (T/C endpoint: median survival time, dose: 64.0 mg/kg/injection, schedule: Q01DX009 (ip), vehicle: water) 0 of 6; (T/C endpoint: median survival time, dose: 65.0 mg/kg/injection, schedule: Q01DX009 (ip), vehicle: water) 2 of 6; under setting [2], 0 of 6; (T/C endpoint: median survival time, dose: 128.0 mg/kg/injection, schedule: Q01DX009 (ip), vehicle: water) 0 of 6; (T/C endpoint: median survival time, dose: 130.0 mg/kg/injection, schedule: Q01DX009 (ip), vehicle: water) 0 of 6. In addition, the survivor count under setting [3] is 0 of 6.
Turning to `Cc1cc(NCCCN(C)C)c2ccc3c(ccc4c(NCCCN(C)C)cc(C)nc43)c2n1`, for the setting “T/C endpoint: median survival time, dose: 6.0 mg/kg/injection, schedule: Q01DX009 (ip), vehicle: saline”, the survivor count was 5 of 6.
Take `O=C(O)C1CC1.[Ag]`: under setting [4], the survivor count is recorded as 0 of 6.
Take `O=C(C[n+]1cccc(C(=O)NCc2ccccc2)c1)Nc1ccccc1`: the survivor count under setting [5] is listed as 1 of 6 and the survivor count under setting [4] is recorded as 0 of 6.
As for `CC[n+]1c(-c2ccccc2)c2cc(N)ccc2c2ccc(N)cc21`, the T/C reads like this: (T/C endpoint: mean survival time, dose: 2.5 mg/kg/injection, schedule: Q01DX009 (ip), vehicle: water) 97, 103, 106, 112 % of control; (T/C endpoint: mean survival time, dose: 5.0 mg/kg/injection, schedule: Q01DX009 (ip), vehicle: water) 112, 114 (2×), 122 % of control; (T/C endpoint: mean survival time, dose: 10.0 mg/kg/injection, schedule: Q01DX009 (ip), vehicle: water) 117, 118, 126, 127 % of control; (T/C endpoint: mean survival time, dose: 20.0 mg/kg/injection, schedule: Q01DX005 (ip), vehicle: water) 138 % of control; (T/C endpoint: mean survival time, dose: 20.0 mg/kg/injection, schedule: Q01DX009 (ip), vehicle: water) 117, 124, 125, 139 % of control [5 of 6 alive]. Further, the survivor count reads like this: (T/C endpoint: mean survival time, dose: 32.0 mg/kg/injection, schedule: Q01DX009 (ip), vehicle: water) 6 of 6; (T/C endpoint: mean survival time, dose: 40.0 mg/kg/injection, schedule: Q01DX005 (ip), vehicle: water) 6 of 6; (T/C endpoint: mean survival time, dose: 40.0 mg/kg/injection, schedule: Q01DX009 (ip), vehicle: water) 4 of 6 and 5 of 6.
`O=C(NCc1ccco1)C1COc2ccccc2O1` (stereo not drawn): under setting [3], the survivor count is 5 of 6.
Consider `Nc1cccc(Oc2ccc([N+](=O)[O-])cc2)c1`, for which the survivor count (T/C endpoint: mean survival time, dose: 400.0 mg/kg/injection, schedule: Q01DX001 (ip), vehicle: Klucel (hydroxypropylcellulose) (HPC)) is 3 of 3.
Regarding `c1ccc(-c2c3ccccc3c(-c3ccccc3)c3c2ccc2ccccc23)cc1`, the survivor count is on record as 3 of 3 (T/C endpoint: mean survival time, dose: 25.0 mg/kg/injection, schedule: Q01DX009 (ip), vehicle: Klucel (hydroxypropylcellulose) (HPC)); 3 of 3 (T/C endpoint: mean survival time, dose: 50.0 mg/kg/injection, schedule: Q01DX009 (ip), vehicle: Klucel (hydroxypropylcellulose) (HPC)); 3 of 3 (T/C endpoint: mean survival time, dose: 100.0 mg/kg/injection, schedule: Q01DX009 (ip), vehicle: Klucel (hydroxypropylcellulose) (HPC)).
Consider `N#Cc1ccc([N+](=O)[O-])o1`, for which, for the setting “T/C endpoint: mean survival time, dose: 100.0 mg/kg/injection, schedule: Q04DX003 (ip), vehicle: saline with Tween-80”, the survivor count is reported as 5 of 6.
Consider `COc1ccc(CC2=NCCc3cc(OC)c(OC)cc32)cc1OC`, for which the survivor count is 3 of 6 (T/C endpoint: mean survival time, dose: 100.0 mg/kg/injection, schedule: Q01DX009 (ip), vehicle: saline); 0 of 6 under setting [5]; 0 of 6 under setting [4].
Take `CC1Cc2c([nH]c3ccc(Cl)cc23)CN1` (stereo not drawn): the survivor count (T/C endpoint: mean survival time, dose: 400.0 mg/kg/injection, schedule: Q04DX002 (ip), vehicle: saline with Tween-80) is recorded as 1 of 3.
`COc1ccc(COc2ccc([N+](=O)[O-])cc2)cc1`: the survivor count (T/C endpoint: mean survival time, dose: 200.0 mg/kg/injection, schedule: Q04DX002 (ip), vehicle: saline with Tween-80) was 3 of 3.
